# The list shows a part of the results. These are further read-outs of the screen, such as a control signal, another cell line or another target. No call is given for them. Most of these compounds were active or inconclusive in the main read-out, so they are no random draw. The note in brackets gives the kind of curve behind each potency; many fits are weak.
# Experiment: Cell signaling CRE-BLA (Fsk stim)
# Conditions: CHO CRE-bla reporter (cAMP response element driving beta-lactamase), forskolin EC10, beta-lactamase ratio; measured here: 460 nm blue channel
# In short: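 CRE-bla CHO reporter cells treated with compound titration plus EC10 NKH 477 (water-soluble forskolin), incubated 3 h at 37 °C; CCF4 loading 2 h at room temperature, 460/530 nm emission ratio read, AC50 values derived for positive or negative modulators.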
row,Compound,AC50
1,Cc1ccc(Cn2nnc3c(=O)[nH]c(C4CCN(C(=O)c5cccs5)CC4)nc32)cc1,"12.6 µM [rising, single point]"
2,Cc1c(C(=O)OC2CCCC2C)[nH]c2c1C(=O)CCC2 (stereo not drawn),"5.01 µM [rising, partial curve]"
3,COC(=O)[C@H](C)NC(=O)Nc1ccc(OC)c(OC)c1,"20 µM [falling, partial curve]"
4,COc1ccc(C(=O)Nc2cc(-c3nn4c(C)nnc4s3)ccc2C)cc1,"7.94 µM [rising, partial curve]"
5,COCCNc1nc(-c2ccc(N(C)C)cc2)nc2ccccc12,"5.01 µM [rising, partial curve]"
6,CC1Cc2nc(SCC(=O)Nc3ccc(F)cc3F)n(C)c(=O)c2S1 (stereo not drawn),"5.01 µM [falling, single point]"
7,COc1ccc(CNS(=O)(=O)c2ccc3oc(C(=O)O)c(C)c3c2)cc1,"5.01 µM [falling, single point]"
8,O=C(c1cccs1)N1CCCC(c2nc(-c3ccc(F)cc3)no2)C1 (stereo not drawn),"15.8 µM [rising, partial curve]"
9,Cc1cc2nn(-c3ccccc3)nc2cc1NC(=O)c1cccs1,"6.31 µM [falling, partial curve]"
10,Cc1ccc(-c2noc(C3CCCN(C(=O)c4c(F)cccc4F)C3)n2)cc1 (stereo not drawn),"5.01 µM [falling, single point]"
11,Cc1nc2ccccc2c(=O)n1/N=C/c1ccc(O)cc1,"5.01 µM [rising, full curve, poor fit]"
12,Cc1cnn(-c2nc(-c3cccs3)cc(C(F)(F)F)n2)c1,"12.6 µM [rising, partial curve]"
13,Cc1ccc(NC(=O)CCn2cnc3ccccc3c2=O)cc1Cl,"12.6 µM [rising, single point]"
14,COc1cccc(Nc2ncc3nc(-c4cn(C)c5ccccc45)c(=O)n(C[C@H]4CCCO4)c3n2)c1,"12.6 µM [rising, partial curve]"
15,COC(=O)CC(=O)CSc1nc2c(cc1C#N)CCCCC2,"12.6 µM [rising, single point]"
16,Cc1ccc(SC(C)c2nc(-c3ccncc3)no2)cc1 (stereo not drawn),"12.6 µM [rising, partial curve]"
17,C=CCn1c(=O)[nH]c2cc(C(=O)N3CCN(c4ccc(C(C)=O)cc4)CC3)ccc2c1=O,"7.94 µM [rising, partial curve, poor fit]"
18,CCC(C)(C)n1nnnc1C(c1cc2ccc(OC)cc2[nH]c1=O)N1CCc2ccccc2C1 (stereo not drawn),"25.1 µM [rising, single point]"
19,c1ccc(COc2ccc(Nc3ncnc4nc[nH]c34)cc2)cc1,"10 µM [rising, partial curve]"
20,Cc1cc(=O)oc2cc3c(cc12)OCCN3,"10 µM [rising, partial curve]"
21,O=C(c1ccccc1)c1cccn1CC(=O)N1CCN(c2ccccc2)CC1,"0.251 µM [falling, full curve, poor fit]"
22,COCCn1c(-c2cc(OC)c(OC)c(OC)c2)nc2oc3ccccc3c(=O)c2c1=O,"2 µM [rising, full curve]"

row,Compound,AC50
1,CC(=O)NCCn1c(SCc2ccccc2F)nc2ccccc2c1=O,"7.94 µM [rising, partial curve]"
2,CCNc1nc(OC)nc(Oc2ccc(=O)n(-c3ccccc3)n2)n1,"12.6 µM [rising, single point]"
3,CCOc1ccc(NC(=O)C2CC(C)=C(C)CC2C(=O)O)cc1 (stereo not drawn),"1.58 µM [falling, partial curve]"
4,Cc1cc(C)n(-c2ccc(C(=O)OCc3nnc(-c4ccccc4)o3)cc2)n1,"15.8 µM [falling, single point]"
5,S=c1[nH]c2ncccc2o1,"5.01 µM [falling, single point]"
6,COC(=O)c1ccccc1NS(=O)(=O)c1cn(C)c(=O)n(C)c1=O,"25.1 µM [rising, single point]"
7,Cn1c(=O)c2c(-c3ccc(C(C)(C)C)cc3)n(N3CCOCC3)cc2n(C)c1=O,"0.00316 µM [rising, full curve, poor fit]"
8,O=C(CSc1nc2cc(Cl)ccc2s1)c1ccco1,"25.1 µM [rising, single point]"
9,CCC1(C)NC(=O)N(CC(=O)Nc2sc3c(c2C(N)=O)CCC3)C1=O (stereo not drawn),"0.00316 µM [falling, full curve, poor fit]"
10,Cc1ccc(-c2nc3ncccn3c2NC2CCCC2)o1,"0.00316 µM [falling, full curve, poor fit]"
11,COc1ccc(C(=O)CSc2nnc(CNc3ccc(C)cc3C)n2Cc2ccco2)cc1,"0.398 µM [falling, full curve, poor fit]"
12,COC(=O)Cc1cc(=O)[nH]c(Nc2nc3ccccc3o2)n1,"1 µM [falling, partial curve, poor fit]"
13,COc1ccc(C(c2sc3nc(C)nn3c2O)N2CCC(O)CC2)cc1OC (stereo not drawn),"2.51 µM [rising, full curve]"
14,COc1cccc(-c2nc(CS(=O)(=O)CC(=O)NCCCN3CCc4ccccc4C3)c(C)o2)c1,"12.6 µM [falling, single point]"
15,O=C(CSc1nnc(-c2ccco2)o1)c1ccc(F)c(F)c1,"25.1 µM [rising, single point]"
16,COc1ccc(C2C=C(c3ccccc3)Nc3ncnn32)cc1 (stereo not drawn),"25.1 µM [rising, single point]"
17,O=C(Nc1cccc(C(=O)N2CCCC2)c1)c1ccccc1,"0.794 µM [rising, full curve]"
18,O=c1[nH]c2ccc(Cl)cc2c(-c2ccccc2)c1N1CCOCC1,"15.8 µM [rising, single point]"
19,Cc1ccc(C)c(S(=O)(=O)Nc2ccccc2C(=O)Nc2cc(C)on2)c1,"3.98 µM [falling, partial curve]"
20,CCN(CC)C(=O)C1CCCN(Cc2ccccc2C(F)(F)F)C1 (stereo not drawn),"0.398 µM [rising, full curve]"
21,C=CC(=O)OCCCCCCOC(=O)C=C,"15.8 µM [falling, partial curve]"

# Compounds shown so far that contain a COOH group:
row,Compound,AC50
7,COc1ccc(CNS(=O)(=O)c2ccc3oc(C(=O)O)c(C)c3c2)cc1,"5.01 µM [falling, single point]"
3,CCOc1ccc(NC(=O)C2CC(C)=C(C)CC2C(=O)O)cc1 (stereo not drawn),"1.58 µM [falling, partial curve]"

# Source: PubChem BioAssay AID662 (National Center for Advancing Translational Sciences (NCATS), 2007)
